Reference: PubChem BioAssay AID743121 (NCATS, 2013)
Shown is a random part of about 26,000 deposited reagents. In the full data, 167 (0.63%) got an active call. 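Calls are per gene from RSA p-values that are not deposited; an individual active-marked siRNA can sensitise only weakly.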 Unmarked entries are inactive. Reagents against one gene are numbered here. Further read-outs or replicates are left out here. Reagent sequences are not shown.

- Aim: 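Genes whose silencing strengthens cell killing by camptothecin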 (primary screen)
- System: MDA-MB-231 cells, a human breast cancer line
- Reagent: single siRNA against human genes, 20 nM siRNA (0.8 pmol per well)
- Timing: 120 h (drug added 48 h after transfection, read 72 h later)
- Conditions: camptothecin 20 nM (about EC30) for 72 h; vehicle 0.1% DMSO in parallel plates
- Measurement: 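CellTiter-Glo ATP signal, scaled to control siRNA as percent viability; sensitisation given as log2 of untreated divided by camptothecin-treated viability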
- Reading the numbers: log2 vehicle/camptothecin viability: higher = stronger sensitisation to camptothecin; viability with camptothecin: higher = more viable cells
- Active means: 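Each gene scored by redundant siRNA activity (RSA) over its individual siRNA ratios; a gene is called active at p < 0.001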

| Target gene | siRNA no. | log2 vehicle/camptothecin viability | viability with camptothecin (% of control) |
| --- | --- | --- | --- |
| RNF13 (GeneID 11342) | 1 | -0.614 | 77.8 |
| RNF13 (GeneID 11342) | 2 | -0.159 | 81.1 |
| RNF13 (GeneID 11342) | 3 | 0.183 | 35.8 |
| CPB1 (GeneID 1360) | 1 | -0.154 | 99.5 |
| CPB1 (GeneID 1360) | 2 | -0.263 | 76.9 |
| CPB1 (GeneID 1360) | 3 | -0.535 | 58.4 |
| CD84 (GeneID 8832) | 1 | -0.512 | 100 |
| CD84 (GeneID 8832) | 2 | -0.206 | 74.8 |
| CD84 (GeneID 8832) | 3 | -0.402 | 38.6 |
| CD84 (GeneID 8832) | 4 | -0.0347 | 82.4 |
| CCN4 (GeneID 8840) | 1 | -0.249 | 42.9 |
| CCN4 (GeneID 8840) | 2 | 0.0827 | 83 |
| CCN4 (GeneID 8840) | 3 | -0.0806 | 88.2 |
| CCN4 (GeneID 8840) | 4 | -0.244 | 103 |
| STK24 (GeneID 8428) | 1 | -0.234 | 126 |
| STK24 (GeneID 8428) | 2 | -0.172 | 86.7 |
| STK24 (GeneID 8428) | 3 | -0.342 | 88.8 |
| STK24 (GeneID 8428) | 4 | -0.284 | 101 |
| SMOX (GeneID 54498) | 1 | -0.461 | 92.5 |
| SMOX (GeneID 54498) | 2 | -0.346 | 74.2 |
| SMOX (GeneID 54498) | 3 | -0.173 | 81.6 |
| SMOX (GeneID 54498) | 4 | -0.187 | 65.6 |
| CANX (GeneID 821) | 1 | -0.00534 | 58.6 |
| CANX (GeneID 821) | 2 | -0.31 | 96.9 |
| CANX (GeneID 821) | 3 | -0.0673 | 76.8 |
| CANX (GeneID 821) | 4 | -0.132 | 75.3 |
| STK32B (GeneID 55351) | 1 | -0.191 | 40.9 |
| STK32B (GeneID 55351) | 2 | -0.13 | 104 |
| STK32B (GeneID 55351) | 3 | -0.299 | 93.5 |
| STK32B (GeneID 55351) | 4 | 0.0694 | 74.3 |
| RPLP2 (GeneID 6181) | 1 | -0.335 | 42.7 |
| RPLP2 (GeneID 6181) | 2 | -0.219 | 34.6 |
| RPLP2 (GeneID 6181) | 3 | -0.164 | 34.8 |
| JMJD1C (GeneID 221037) | 1 | -0.0439 | 118 |
| JMJD1C (GeneID 221037) | 2 | -0.575 | 19.7 |
| JMJD1C (GeneID 221037) | 3 | -0.157 | 109 |
| JMJD1C (GeneID 221037) | 4 | -0.153 | 85.3 |
| RNF185 (GeneID 91445) | 1 | -0.0658 | 116 |
| RNF185 (GeneID 91445) | 2 | -0.173 | 104 |
| RNF185 (GeneID 91445) | 3 | -0.0115 | 86.5 |
| GPT (GeneID 2875) | 1 | -0.416 | 102 |
| GPT (GeneID 2875) | 2 | -0.435 | 67.5 |
| GPT (GeneID 2875) | 3 | -0.172 | 83.6 |
| GPT (GeneID 2875) | 4 | 0.091 | 68.7 |
| MYB (GeneID 4602) | 1 | -0.3 | 98.1 |
| MYB (GeneID 4602) | 2 | -0.14 | 92.4 |
| MYB (GeneID 4602) | 3 | -0.272 | 87.7 |
| MYB (GeneID 4602) | 4 | -0.396 | 63.2 |

Copied from the list.
RNF185 (GeneID 91445) #2, log2 vehicle/camptothecin viability → -0.173
MYB (GeneID 4602) #4, viability with camptothecin (% of control) → 63.2
RPLP2 (GeneID 6181) #3, log2 vehicle/camptothecin viability → -0.164
SMOX (GeneID 54498) #4, viability with camptothecin (% of control) → 65.6
For “log2 vehicle/camptothecin viability”, STK24 (GeneID 8428) #3 has -0.342
STK32B (GeneID 55351) #3, log2 vehicle/camptothecin viability: -0.299
